Among all 360,000 compounds or so, about 7,500 (2.1%) were called active. The inconclusive results got no clear call from the source; some entries with a clear call stand among them for comparison. Calls follow the shape of the dose curve; as a rule, active = well fitted inhibition curve with a large enough effect; inconclusive = small, poorly fitted or top-dose-only effect, or effect the other way; inactive = flat fitted curve, though single readings scatter. A potency beside an inconclusive call is a rough fit, not a confirmed value. Square brackets hold non-standard residues; d marks the D form. Peptide text beside a SMILES is read from it. * marks the point of attachment. ξ: configuration not given here. ξY = NC(Cc1ccc(O)cc1)C(=O)O; Cbz = O=C(OCc1ccccc1)*; OtBu = CC(C)(C)O*; tBu = CC(C)(C)*
Assay: Nrf2 qHTS screen for inhibitors; also: nearly all actives have a fitted effect of over 60% in size
Details: A549 ARE-Fluc reporter, luciferase luminescence, 18-24 h; activity change, negative = inhibition: at 46 µM (top of the series)
Procedure, shortened: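 A549 ARE_Fluc cells, 5000/well, 5% FBS OPTI-MEM; compounds in dose-response, 18-24 h at 37 °C/5% CO2; CellTiter-Fluor viability read (Ex 405/Em 525), then BugLite luciferase luminescence = Nrf2 activity.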
% is scaled to controls: 0 for no effect and ±100 for the full control effect; potency is read from the fitted curve at half-maximal effect.

Row | Compound | Potency | activity change, negative = inhibition
1 | Cc1ccc(-c2nc(CS(=O)(=O)CC(=O)NC(C)CCc3ccccc3)c(C)o2)cc1 (stereo not given) | inconclusive: 32.6 µM [falling, single point] | –
2 | COc1ccc(/C=N/NC2=NCCCCC2)c(OC)c1 | inconclusive: 25.9 µM [activator, partial curve, poor fit] | –
3 | Fc1ccc2[nH]c3c(N4CCc5ccccc5C4)ncnc3c2c1 | active: 7.31 µM | –
4 | CCC(=O)c1ccc(OCc2ccc(C#N)cc2)cc1 | inconclusive: 25.9 µM [activator, single point] | –
5 | O=C1OC(c2ccc3ccccc3c2O)(c2ccc3ccccc3c2O)c2ccccc21 | inconclusive: 29.1 µM [falling, single point] | –
6 | COc1ccc(NC(=O)CCCN2C(=O)/C(=C\c3ccco3)SC2=S)cc1 | inconclusive: 29.1 µM [falling, single point] | –
7 | Cc1cccc(CSCCNC(=S)Nc2ccccc2)c1 | – | inactive: -8.12%
8 | CCc1nc(N2CCN(Cc3ccc4c(c3)OCO4)CC2)c2oc3ccccc3c2n1 | inconclusive: 10.3 µM [falling, partial curve, poor fit] | –
9 | CCN(CC)CCSc1nnc(Nc2ccccc2)n1-c1ccccc1 | inconclusive: 29.1 µM [activator, single point] | –
10 | CC(NC(=O)CCc1cn(Cc2ccccc2Cl)c2ccccc12)c1ccccc1 (stereo not given) | inconclusive: 29.1 µM [falling, single point] | –
11 | O=C(NCCc1ccccc1)c1ccc(CSc2nc3cccnc3n2Cc2ccccc2)cc1 | inconclusive: 29.1 µM [falling, single point] | –
12 | O=C(Nc1nc2c(Cl)cccc2s1)c1ccc([N+](=O)[O-])o1 | – | inactive: 5.65%
13 | CCCCCCSc1cccc(-c2nc3cc(C)ccn3c2NCc2ccccc2)c1 | – | inactive: 6.1%
14 | CN(CC(=O)Nc1ccc2c(c1)OCCO2)CC(=O)Nc1ccc(F)c(F)c1F | inconclusive: 23.1 µM [activator, single point] | –
15 | CCOc1ccc(S(=O)(=O)Nc2nc3ccccc3nc2Cl)cc1 | inconclusive: 23.1 µM [falling, single point] | –
16 | O=C(NNC(=O)c1ccncc1)Nc1cccc([N+](=O)[O-])c1 | inconclusive: 3.66 µM [activator, full curve, poor fit] | –
17 | COc1cc(/C=N/NC(=O)c2ccncc2)ccc1O | inconclusive: 16.4 µM [activator, partial curve] | –
18 | O=C1c2ccccc2C(=O)C1c1ccncc1 | inconclusive: 0.366 µM [activator, partial curve, poor fit] | –
19 | CN1CCN(C2=C(Cl)C(=O)c3ccccc3C2=O)CC1 | inconclusive: 18.4 µM [falling, single point] | –
20 | COc1cc(C(=O)NCCOc2ccc(C)c(C)c2)cc(OC)c1OC | inconclusive: 32.6 µM [falling, single point] | –
21 | Cc1cccc(/C=C/C(=O)c2cc(Br)ccc(=O)c2O)c1 | inconclusive: 29.1 µM [falling, single point] | –
22 | COc1ccc(Cl)cc1C(=O)NNC(=O)c1nn(C)c(=O)c2ccccc12 | inconclusive: 20.6 µM [falling, single point] | –

Row | Compound | Potency | activity change, negative = inhibition
23 | Cc1cc(F)ccc1NC(=O)Nc1ccc2c(c1)OCO2 | inconclusive: 0.13 µM [activator, full curve, poor fit] | –
24 | COc1cccc(C2=CC(c3cccc(OC)c3OC(F)F)n3nnnc3N2)c1 (stereo not given) | inconclusive: 23.1 µM [falling, single point] | –
25 | Cc1ccccc1CN1CCN(c2nc3ccccc3s2)CC1 | inconclusive: 3.26 µM [activator, partial curve, poor fit] | –
26 | O=C(C1CC1)N1CCc2cc(S(=O)(=O)N(CCO)Cc3ccccc3)ccc21 | inconclusive: 16.4 µM [falling, single point] | –
27 | Cc1cc([N+](=O)[O-])ccc1NCc1ccccc1 | active: 18.4 µM | –
28 | COc1cc([N+](=O)[O-])ccc1NC(=O)Cc1ccc(F)cc1 | inconclusive: 20.6 µM [falling, single point] | –
29 | C/C(=N\NC(=O)c1ccn(C)n1)c1ccc(NC(=O)c2cccc(F)c2)cc1 | – | inactive: -22%
30 | Nn1cc(-c2ccccc2)nc1SCC(=O)N1CCN(S(=O)(=O)c2ccc3ccccc3c2)CC1 | inconclusive: 32.6 µM [falling, single point] | –
31 | COc1cccc(CCNC(=O)CCc2nnc(Cc3cc(OC)ccc3OC)o2)c1 | inconclusive: 29.1 µM [activator, single point] | –
32 | O=C(COc1ccc2ccc(=O)oc2c1)Nc1ccc(CCO)cc1 | inconclusive: 18.4 µM [falling, partial curve, poor fit] | –
33 | CCS(=O)(=O)N1CC(=O)N(c2cc(C)cc(C)c2)C(C)(C(=O)NC2CCCCC2)C1 (stereo not given) | – | inactive: 27.5%
34 | O=C1C2CC=CCC2C(=O)N1Cc1nnc(-c2ccccc2Br)o1 (stereo not given) | inconclusive: 13 µM [activator, partial curve] | –
35 | COc1cccc(OC)c1C(=O)NC(=S)N1CCN(c2ccc(C(F)(F)F)cc2[N+](=O)[O-])CC1 | inconclusive: 16.4 µM [falling, single point] | –
36 | COc1ccc(N2CCN(CCCNC(=O)c3nnc(Cc4ccccc4Cl)o3)CC2)cc1 | inconclusive: 23.1 µM [falling, partial curve, poor fit] | –
37 | O=C(CSc1ccccc1C(=O)N1CCN(c2ccccc2)CC1)N1CCCC1 | – | inactive: -6.48%
38 | CC(=O)NC12CC3CC(C1)CC(C(=O)Nc1ccc(C)c(S(=O)(=O)N4CCCCCC4)c1)(C3)C2 | inconclusive: 20.6 µM [falling, single point] | –
39 | COc1ccc(/C=C/C(=O)Nc2cc(-c3nc4ccccc4o3)ccc2OC)cc1 | inconclusive: 16.4 µM [falling, single point] | –
40 | CCOC(=O)c1nn(-c2ccccc2)c(C#N)c1NC(=O)c1nn(CC)cc1Br | inconclusive: 23.1 µM [falling, single point] | –
41 | CC(=O)c1cccc(NC(=O)Nc2cccnc2)c1 | inconclusive: 29.1 µM [falling, single point] | –
42 | CCOc1cc(/C=N\NC(=O)OC(C)(C)C)ccc1OC(=O)c1ccco1 | inconclusive: 23.1 µM [activator, single point] | –
43 | CCOC(=O)N1CCN(C(=O)c2cc3c(s2)-c2c(C)cccc2OC3)CC1 | inconclusive: 18.4 µM [falling, partial curve] | –
44 | N#Cc1cnn2ccc(-c3cc(N4CCOCC4)ccc3[N+](=O)[O-])nc12 | inconclusive: 13 µM [falling, partial curve, poor fit] | –

Another view of some results above.
Row,Compound,Potency,"activity change, negative = inhibition"
8,CCc1nc(N2CCN(Cc3ccc4c(c3)OCO4)CC2)c2oc3ccccc3c2n1,"inconclusive: 10.3 µM [falling, partial curve, poor fit]",–
9,CCN(CC)CCSc1nnc(Nc2ccccc2)n1-c1ccccc1,"inconclusive: 29.1 µM [activator, single point]",–

(cont.)

Row | Compound | Potency | activity change, negative = inhibition
45 | COC(=O)CCC(=O)OC1(C)C(=O)C2=CN(C3CC3)C(c3ccc(OC)cc3)=CC2=C(Br)C1=O (stereo not given) | inconclusive: 10.3 µM [activator, partial curve, poor fit] | –
46 | COc1ccccc1C(=O)NCC(=O)N/N=C/c1ccc2c(c1)OCO2 | inconclusive: 23.1 µM [activator, single point] | –
47 | Cc1cc(C)nc(NC(=O)CN2C(=O)c3ccccc3S2(=O)=O)n1 | – | inactive: 11.5%
48 | COc1cc(/C=N\NC(=O)c2ccc(-c3ccccc3)cc2)cc(OC)c1O | – | inactive: 1.72%
49 | COc1ccc(CCNC(=O)c2cnn(-c3cccc(C)c3)c2C2CCNCC2)cc1OC | inconclusive: 16.4 µM [activator, single point] | –
50 | CC(=O)c1ccc(NC(=O)c2cc3c([nH]c2=O)CC(c2ccccc2)CC3=O)cc1 (stereo not given) | – | inactive: 14.9%
51 | O=C(N/N=C/C(Cl)=C/c1ccc([N+](=O)[O-])cc1)C(=O)Nc1cccc(C(=O)O)c1 | – | inactive: 3.33%
52 | CCOc1ccc2c(c1)c(=O)c(C(=O)c1ccccc1)cn2Cc1ccccc1F | – | inactive: -0.0647%
53 | CCN1CCN(CCCNC(=O)c2cc3c(=O)[nH]c4ccccc4c3s2)CC1 | – | inactive: 3.31%
54 | COc1cc2c(cc1OC)C(C)N(C(=O)c1cc3c(=O)oc4ccc(C)cc4c3s1)CC2 (stereo not given) | – | inactive: -20.2%
55 | Cc1ccccc1OCC(=O)NCCCNC(=O)c1ccccn1 | inconclusive: 9.2 µM [falling, partial curve, poor fit] | –
56 | CC(C)Cc1cc(CN2CCC(CO)(Cc3cccc(C(F)(F)F)c3)CC2)[nH]n1 | – | inactive: 8.02%
57 | Cc1cc(F)ccc1NC(=O)CCS(=O)(=O)c1cc2c3c(c1)CCN3C(=O)CC2 | inconclusive: 29.1 µM [activator, single point] | –
58 | CCN(CC)c1ccc(C(=O)NNC(=O)CCc2nc3ccccc3c(=O)[nH]2)cc1 | inconclusive: 14.6 µM [falling, partial curve, poor fit] | –
59 | Cn1cc(C=O)c2cc(F)ccc21 | – | inactive: 12.2%
60 | O=C(NCc1ccccc1)C12CC3CC(CC(Br)(C3)C1)C2 | – | inactive: 7.57%
61 | CC(=O)N1c2ccc(S(=O)(=O)N3CCCC3C(=O)Nc3ccc(C)cc3)cc2CC1C (stereo not given) | inconclusive: 20.6 µM [falling, partial curve, poor fit] | –
62 | CC(C)CCSc1nc(N2CCOCC2)c2c(c1C#N)CC(C)(C)OC2 | inconclusive: 29.1 µM [falling, single point] | –
63 | O=C(c1ccc(NS(=O)(=O)/C=C/c2ccccc2)cc1)N1CCCCC1 | inconclusive: 11.6 µM [falling, partial curve] | –
64 | CC(C)(C)OC(=O)C(Cc1ccc(OC(C)(C)C)cc1)NC(=O)CNC(=O)OCc1ccccc1 (stereo not drawn) (Cbz-Gly-[ξY](tBu)-OtBu) | inconclusive: 25.9 µM [falling, partial curve, poor fit] | –
65 | CC1(C)CC[C@]2(CO)CC[C@]3(C)C(=CCC4[C@@]5(C)CC[C@H](O)[C@@](C)(CO)C5CC[C@]43C)[C@@H]2C1 (stereo not given in full) | inconclusive: 29.1 µM [falling, single point] | –
